According to US10035971B2, “Method for treating algae” (STAMICARBON B.V., priority 2014, dated 2018):

Tested on: wet algae
Assay: Algal cell lysis with ionic liquid and oil extraction / transesterification
Type: cell-based
Settings: for state of liquid phase after lysis and hexane addition / composition of recovered oil: cell lysis 80° C. 1 h; for composition of recovered oil: NMR and GC
[1] = Example 9, procedure of Example 1

Compound	state of liquid phase after lysis and hexane addition	composition of recovered oil	Emulsion formation [1]	Recycle [1]
1-ethyl-3-methylimidazolium ethyl sulfate [[EMIM] Ethyl Sulfate]	practically an emulsion	mainly fatty acids	–	–
CCCC[n+]1ccn(C)c1.[Cl-] [[BMIM]Cl, 1-methyl-3-butylimidazolium chloride]	practically an emulsion	mainly fatty acids	Yes	Difficult
CC(=O)[O-].CCCCn1cc[n+](C)c1 [[BMIM] Acetate, 1-butyl-3-methylimidazolium acetate]	practically an emulsion	mainly fatty acids	–	–
